Data: patent US6716582B2 (priority 2000, dated 2004)
For at least one compound, name, drawing or mass did not settle the structure.

System: LuxArray 1.04 luxCDABE gene fusions
Experiment: LuxArray 1.04 limonene stress in liquid culture
Type: cell-based, E. coli
Conditions: 80% saturated limonene
Experimental: Microplates from −80° C. containing the LuxArray 1.04 E. coli strains were thawed and used to inoculate 100 μl LB medium supplemented with 100 μg/ml ampicillin in Costar#3595 flat bottomed 96-well microplates. Following overnight growth at 37° C., the plates were visually examined and any wells with little or no turbidity were recorded. Then these cultures were diluted by transfer of 15 μl to 135 μl LB medium in Costar #3595, flat bottom 96-well microplates and were moderately swirl shaken on an IKA Schuttler MTS 4 shaker at setting 400 for two hrs at 37° C. in a humidified box. Twenty μl of each these actively growing cultures were transferred to the corresponding well in sets of three microplates, one containing 80 μl of LB medium, another containing 80 μl of LB medium saturated with limonene at room temperature, and the third containing 40 μl of LB medium saturated with limonene and 40 μl of LB medium. An initial (zero time) reading was taken using an MLX microplate luminometer (Dynex) pre-warmed to 37° C. Then the plates were placed at 37° C. without shaking. Additional bioluminescent measurements were taken at 45, 90, and 135 minutes. To limit the number of microplates handled each day, LuxArray 1.04 microplates 1 to 5, microplates 6 to 10, microplates 11 to 15, and microplates […] were used on each of four different days.
The data were normalized to correct for growth inhibition caused by limonene on the basis of each individual day that data was collected. The bioluminescence (RLU) of each individual culture for each day of experimentation under each of the three conditions, were added to determine the daily array total RLU. These were used to find a daily normalization factor (DNF) as follows:
DNF=Daily total array signal (time zero, LB control)/Daily total array signal (time x, condition y)
Each measurement from the corresponding day, time point, and condition was multiplied by DNF to yield a normalized signal. The data from wells that were scored to have little or no growth were not used in further analysis. The normalized data were analyzed with GeneSpring (Silicon Genetics) software, which averaged the signal from each of the duplicate cultures for each reporter gene fusion.
Thus, patterns of gene expression from the 80% saturated limonene in LB medium were further examined. […] These lists were examined and gene fusions with very low normalized RLU values (<0.012 RLU) at all conditions were eliminated. […] The designation of “>2×” is given for upregulation while “*” is listed if the expression was less than 2 fold increased. At 45 minutes, the expression of fourteen gene fusions was increased; none of these was increased 3 fold or higher. At 90 minutes, 37 gene fusions were induced; these included all but one of the gene fusions observed at 45 minutes. […] These were fusions of the luxCDABE reporter to the promoter regions of uhpT (3.8×), nirB (3.7×) and narK (3.6×). At 135 minutes, 39 gene fusions were induced, which included 13 fusions not observed at 45 or 90 minutes.

## C=C(C)[C@H]1CC=C(C)CC1 [limonene]
b2081-lux, 90 minutes
  upregulation of gene fusion: >2X (Lists were made of gene fusions that were upregulated by 2 fold or more; The designation of “>2×” is given for upregulation)
b2081-lux, 135 minutes
  upregulation of gene fusion: * (“*” is listed if the expression was less than 2 fold increased)
b2114 (metG)-lux, 45 minutes
  upregulation of gene fusion: * (“*” is listed if the expression was less than 2 fold increased)
b2114 (metG)-lux, 90 minutes
  upregulation of gene fusion: * (“*” is listed if the expression was less than 2 fold increased)
b2114 (metG)-lux, 135 minutes
  upregulation of gene fusion: >2X (Lists were made of gene fusions that were upregulated by 2 fold or more; The designation of “>2×” is given for upregulation)
b2237 (inaA)-lux, 45 minutes
  upregulation of gene fusion: * (“*” is listed if the expression was less than 2 fold increased)
b2237 (inaA)-lux, 90 minutes
  upregulation of gene fusion: >2X (Lists were made of gene fusions that were upregulated by 2 fold or more; The designation of “>2×” is given for upregulation)
b2237 (inaA)-lux, 135 minutes
  upregulation of gene fusion: >2X (Lists were made of gene fusions that were upregulated by 2 fold or more; The designation of “>2×” is given for upregulation)
b2322-lux, 45 minutes
  upregulation of gene fusion: * (“*” is listed if the expression was less than 2 fold increased)
b2322-lux, 90 minutes
  upregulation of gene fusion: >2X (Lists were made of gene fusions that were upregulated by 2 fold or more; The designation of “>2×” is given for upregulation)
b2322-lux, 135 minutes
  upregulation of gene fusion: >2X (Lists were made of gene fusions that were upregulated by 2 fold or more; The designation of “>2×” is given for upregulation)
b2367 (emrY)-lux, 45 minutes
  upregulation of gene fusion: * (“*” is listed if the expression was less than 2 fold increased)
b2367 (emrY)-lux, 90 minutes
  upregulation of gene fusion: >2X (Lists were made of gene fusions that were upregulated by 2 fold or more; The designation of “>2×” is given for upregulation)
b2367 (emrY)-lux, 135 minutes
  upregulation of gene fusion: * (“*” is listed if the expression was less than 2 fold increased)
b2428-lux, 45 minutes
  upregulation of gene fusion: * (“*” is listed if the expression was less than 2 fold increased)
b2428-lux, 90 minutes
  upregulation of gene fusion: * (“*” is listed if the expression was less than 2 fold increased)
b2428-lux, 135 minutes
  upregulation of gene fusion: >2X (Lists were made of gene fusions that were upregulated by 2 fold or more; The designation of “>2×” is given for upregulation)
b2451-lux, 45 minutes
  upregulation of gene fusion: * (“*” is listed if the expression was less than 2 fold increased)
b2451-lux, 90 minutes
  upregulation of gene fusion: >2X (Lists were made of gene fusions that were upregulated by 2 fold or more; The designation of “>2×” is given for upregulation)
b2451-lux, 135 minutes
  upregulation of gene fusion: >2X (Lists were made of gene fusions that were upregulated by 2 fold or more; The designation of “>2×” is given for upregulation)
b2550-lux, 45 minutes
  upregulation of gene fusion: * (“*” is listed if the expression was less than 2 fold increased)
b2550-lux, 90 minutes
  upregulation of gene fusion: >2X (Lists were made of gene fusions that were upregulated by 2 fold or more; The designation of “>2×” is given for upregulation)
b2550-lux, 135 minutes
  upregulation of gene fusion: * (“*” is listed if the expression was less than 2 fold increased)
b2699 (recA)-lux, 45 minutes
  upregulation of gene fusion: * (“*” is listed if the expression was less than 2 fold increased)
b2699 (recA)-lux, 90 minutes
  upregulation of gene fusion: >2X (Lists were made of gene fusions that were upregulated by 2 fold or more; The designation of “>2×” is given for upregulation)
b2699 (recA)-lux, 135 minutes
  upregulation of gene fusion: >2X (Lists were made of gene fusions that were upregulated by 2 fold or more; The designation of “>2×” is given for upregulation)
b2999-lux, 45 minutes
  upregulation of gene fusion: >2X (Lists were made of gene fusions that were upregulated by 2 fold or more; The designation of “>2×” is given for upregulation)
b2999-lux, 90 minutes
  upregulation of gene fusion: * (“*” is listed if the expression was less than 2 fold increased)
b2999-lux, 135 minutes
  upregulation of gene fusion: * (“*” is listed if the expression was less than 2 fold increased)
b3012-lux, 45 minutes
  upregulation of gene fusion: >2X (Lists were made of gene fusions that were upregulated by 2 fold or more; The designation of “>2×” is given for upregulation)
b3012-lux, 90 minutes
  upregulation of gene fusion: >2X (Lists were made of gene fusions that were upregulated by 2 fold or more; The designation of “>2×” is given for upregulation)
b3012-lux, 135 minutes
  upregulation of gene fusion: >2X (Lists were made of gene fusions that were upregulated by 2 fold or more; The designation of “>2×” is given for upregulation)
b3245-lux, 45 minutes
  upregulation of gene fusion: * (“*” is listed if the expression was less than 2 fold increased)
b3245-lux, 90 minutes
  upregulation of gene fusion: >2X (Lists were made of gene fusions that were upregulated by 2 fold or more; The designation of “>2×” is given for upregulation)
b3245-lux, 135 minutes
  upregulation of gene fusion: >2X (Lists were made of gene fusions that were upregulated by 2 fold or more; The designation of “>2×” is given for upregulation)
b3267 (yhdV)-lux, 45 minutes
  upregulation of gene fusion: * (“*” is listed if the expression was less than 2 fold increased)
b3267 (yhdV)-lux, 90 minutes
  upregulation of gene fusion: >2X (Lists were made of gene fusions that were upregulated by 2 fold or more; The designation of “>2×” is given for upregulation)
b3267 (yhdV)-lux, 135 minutes
  upregulation of gene fusion: >2X (Lists were made of gene fusions that were upregulated by 2 fold or more; The designation of “>2×” is given for upregulation)
b3336 (bfr)-lux, 45 minutes
  upregulation of gene fusion: * (“*” is listed if the expression was less than 2 fold increased)
b3336 (bfr)-lux, 90 minutes
  upregulation of gene fusion: >2X (Lists were made of gene fusions that were upregulated by 2 fold or more; The designation of “>2×” is given for upregulation)
b3336 (bfr)-lux, 135 minutes
  upregulation of gene fusion: * (“*” is listed if the expression was less than 2 fold increased)
b3365 (nirB)-lux, 45 minutes
  upregulation of gene fusion: * (“*” is listed if the expression was less than 2 fold increased)
b3365 (nirB)-lux, 90 minutes
  upregulation of gene fusion: >2X (Lists were made of gene fusions that were upregulated by 2 fold or more; The designation of “>2×” is given for upregulation)
b3365 (nirB)-lux, 135 minutes
  upregulation of gene fusion: >2X (Lists were made of gene fusions that were upregulated by 2 fold or more; The designation of “>2×” is given for upregulation)
b3419 (yhgJ)-lux, 45 minutes
  upregulation of gene fusion: * (“*” is listed if the expression was less than 2 fold increased)
b3419 (yhgJ)-lux, 90 minutes
  upregulation of gene fusion: >2X (Lists were made of gene fusions that were upregulated by 2 fold or more; The designation of “>2×” is given for upregulation)
b3419 (yhgJ)-lux, 135 minutes
  upregulation of gene fusion: >2X (Lists were made of gene fusions that were upregulated by 2 fold or more; The designation of “>2×” is given for upregulation)
b3573-lux, 45 minutes
  upregulation of gene fusion: * (“*” is listed if the expression was less than 2 fold increased)
b3573-lux, 90 minutes
  upregulation of gene fusion: * (“*” is listed if the expression was less than 2 fold increased)
b3573-lux, 135 minutes
  upregulation of gene fusion: >2X (Lists were made of gene fusions that were upregulated by 2 fold or more; The designation of “>2×” is given for upregulation)
b3666 (uhpT)-lux, 45 minutes
  upregulation of gene fusion: * (“*” is listed if the expression was less than 2 fold increased)
b3666 (uhpT)-lux, 90 minutes
  upregulation of gene fusion: >2X (Lists were made of gene fusions that were upregulated by 2 fold or more; The designation of “>2×” is given for upregulation)
b3666 (uhpT)-lux, 135 minutes
  upregulation of gene fusion: >2X (Lists were made of gene fusions that were upregulated by 2 fold or more; The designation of “>2×” is given for upregulation)
b3779 (gppA)-lux, 45 minutes
  upregulation of gene fusion: * (“*” is listed if the expression was less than 2 fold increased)
b3779 (gppA)-lux, 90 minutes
  upregulation of gene fusion: * (“*” is listed if the expression was less than 2 fold increased)
b3779 (gppA)-lux, 135 minutes
  upregulation of gene fusion: >2X (Lists were made of gene fusions that were upregulated by 2 fold or more; The designation of “>2×” is given for upregulation)
b3904 (rhaB)-lux, 45 minutes
  upregulation of gene fusion: >2X (Lists were made of gene fusions that were upregulated by 2 fold or more; The designation of “>2×” is given for upregulation)
b3904 (rhaB)-lux, 90 minutes
  upregulation of gene fusion: >2X (Lists were made of gene fusions that were upregulated by 2 fold or more; The designation of “>2×” is given for upregulation)
b3904 (rhaB)-lux, 135 minutes
  upregulation of gene fusion: >2X (Lists were made of gene fusions that were upregulated by 2 fold or more; The designation of “>2×” is given for upregulation)
b3942 (katG)-lux, 45 minutes
  upregulation of gene fusion: * (“*” is listed if the expression was less than 2 fold increased)
b3942 (katG)-lux, 90 minutes
  upregulation of gene fusion: >2X (Lists were made of gene fusions that were upregulated by 2 fold or more; The designation of “>2×” is given for upregulation)
b3942 (katG)-lux, 135 minutes
  upregulation of gene fusion: >2X (Lists were made of gene fusions that were upregulated by 2 fold or more; The designation of “>2×” is given for upregulation)
b4043 (lexA)-lux, 45 minutes
  upregulation of gene fusion: * (“*” is listed if the expression was less than 2 fold increased)
b4043 (lexA)-lux, 90 minutes
  upregulation of gene fusion: >2X (Lists were made of gene fusions that were upregulated by 2 fold or more; The designation of “>2×” is given for upregulation)
b4043 (lexA)-lux, 135 minutes
  upregulation of gene fusion: * (“*” is listed if the expression was less than 2 fold increased)
b4106 (phnC)-lux, 45 minutes
  upregulation of gene fusion: >2X (Lists were made of gene fusions that were upregulated by 2 fold or more; The designation of “>2×” is given for upregulation)
b4106 (phnC)-lux, 90 minutes
  upregulation of gene fusion: >2X (Lists were made of gene fusions that were upregulated by 2 fold or more; The designation of “>2×” is given for upregulation)
b4106 (phnC)-lux, 135 minutes
  upregulation of gene fusion: >2X (Lists were made of gene fusions that were upregulated by 2 fold or more; The designation of “>2×” is given for upregulation)
b4226 (ppa)-lux, 45 minutes
  upregulation of gene fusion: * (“*” is listed if the expression was less than 2 fold increased)
b4226 (ppa)-lux, 90 minutes
  upregulation of gene fusion: * (“*” is listed if the expression was less than 2 fold increased)
b4226 (ppa)-lux, 135 minutes
  upregulation of gene fusion: >2X (Lists were made of gene fusions that were upregulated by 2 fold or more; The designation of “>2×” is given for upregulation)
b4264 (yjgS)-lux, 45 minutes
  upregulation of gene fusion: * (“*” is listed if the expression was less than 2 fold increased)
b4264 (yjgS)-lux, 90 minutes
  upregulation of gene fusion: >2X (Lists were made of gene fusions that were upregulated by 2 fold or more; The designation of “>2×” is given for upregulation)
b4264 (yjgS)-lux, 135 minutes
  upregulation of gene fusion: * (“*” is listed if the expression was less than 2 fold increased)
b4392 (slt)-lux, 45 minutes
  upregulation of gene fusion: >2X (Lists were made of gene fusions that were upregulated by 2 fold or more; The designation of “>2×” is given for upregulation)
b4392 (slt)-lux, 90 minutes
  upregulation of gene fusion: >2X (Lists were made of gene fusions that were upregulated by 2 fold or more; The designation of “>2×” is given for upregulation)
b4392 (slt)-lux, 135 minutes
  upregulation of gene fusion: * (“*” is listed if the expression was less than 2 fold increased)
